Reference: patent US20190330291A1
These are yes or no findings as the source states them, for the method shown. Binding seen in cells or lysates may run through a third protein. Some entries that bind do so weakly or less than the wild type. For some of these results: Sequences can lack the tags named with a protein.

Sequences of proteins named here, by UniProt entry; tags and fusion partners are left off. A change or cut given only in a name is not applied to a line headed by its entry.
UniProt Q9UBP4: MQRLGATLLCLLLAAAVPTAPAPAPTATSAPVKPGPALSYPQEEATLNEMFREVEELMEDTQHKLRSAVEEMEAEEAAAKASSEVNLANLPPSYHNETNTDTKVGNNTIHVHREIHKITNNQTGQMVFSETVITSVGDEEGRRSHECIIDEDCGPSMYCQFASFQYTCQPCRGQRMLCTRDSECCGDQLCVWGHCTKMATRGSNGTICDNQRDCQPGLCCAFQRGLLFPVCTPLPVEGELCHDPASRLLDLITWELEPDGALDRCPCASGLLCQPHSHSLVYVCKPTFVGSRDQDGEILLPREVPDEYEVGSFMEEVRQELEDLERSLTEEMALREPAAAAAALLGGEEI

Columns and labels:
[1] = molecular target: T1, human TGFβRI-ECD with C-terminal His Tag (human) (UniProt P36897); assay: co-expression in FreeStyle 293F cells, His-tag pull-down on Ni magnetic beads, SDS-PAGE
T1 sequence: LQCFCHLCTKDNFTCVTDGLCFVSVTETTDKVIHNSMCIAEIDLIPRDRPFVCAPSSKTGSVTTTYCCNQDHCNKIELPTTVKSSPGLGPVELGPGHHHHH

[2] = molecular target: T2, extracellular domain of the TGFβ type I receptor found in the culture supernatant of human monocyte-derived dendritic cell-like cells (human) (UniProt P36897); assay: pull-down from culture supernatant on REIC-coated magnetic beads, trypsin digest, HPLC/QTOF mass analysis
T2 sequence (looked up): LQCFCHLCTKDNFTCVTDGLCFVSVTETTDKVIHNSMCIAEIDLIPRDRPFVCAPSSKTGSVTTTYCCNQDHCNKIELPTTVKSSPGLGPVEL

binding [1] | Substance | binding [2]
binds | REIC C domain (partial protein obtained by deleting 120 amino acids at the N-terminal from the full-length REIC/Dkk-3 protein) (from UniProt Q9UBP4 142-350) (ligand) | 
binds | REIC-17 kDa (Cys-rich domain protein of REIC/Dkk-3) (from UniProt Q9UBP4 22-288) (ligand) | 
binds | full-length REIC/Dkk-3 protein (human FL-REIC, secreted from FreeStyle 293 cells) (from UniProt Q9UBP4 22-350) (ligand) | binds
